In article PMC9455082:
No constants are given. Whether binding was seen depends on the method and setting. In cells and extracts the contact can be indirect. Some results given as binding are weak or reduced against the parent protein; the word gives no strength.

Chains of the proteins cited; added tags and fusions are not shown. Lines headed by an entry give the natural chain unless they say otherwise; changes in a name come on top. Residues count along the entry.
UniProt P07766, residues 23-207: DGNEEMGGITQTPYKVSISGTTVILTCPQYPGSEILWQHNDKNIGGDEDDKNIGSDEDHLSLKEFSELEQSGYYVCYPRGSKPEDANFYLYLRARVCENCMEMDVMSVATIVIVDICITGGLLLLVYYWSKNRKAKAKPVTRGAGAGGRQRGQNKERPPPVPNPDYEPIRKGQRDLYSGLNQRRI
UniProt P20963: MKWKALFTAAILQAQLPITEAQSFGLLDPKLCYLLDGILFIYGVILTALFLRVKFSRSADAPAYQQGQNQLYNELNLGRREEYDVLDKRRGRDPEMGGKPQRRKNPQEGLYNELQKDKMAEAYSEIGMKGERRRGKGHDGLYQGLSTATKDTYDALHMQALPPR
UniProt P06239: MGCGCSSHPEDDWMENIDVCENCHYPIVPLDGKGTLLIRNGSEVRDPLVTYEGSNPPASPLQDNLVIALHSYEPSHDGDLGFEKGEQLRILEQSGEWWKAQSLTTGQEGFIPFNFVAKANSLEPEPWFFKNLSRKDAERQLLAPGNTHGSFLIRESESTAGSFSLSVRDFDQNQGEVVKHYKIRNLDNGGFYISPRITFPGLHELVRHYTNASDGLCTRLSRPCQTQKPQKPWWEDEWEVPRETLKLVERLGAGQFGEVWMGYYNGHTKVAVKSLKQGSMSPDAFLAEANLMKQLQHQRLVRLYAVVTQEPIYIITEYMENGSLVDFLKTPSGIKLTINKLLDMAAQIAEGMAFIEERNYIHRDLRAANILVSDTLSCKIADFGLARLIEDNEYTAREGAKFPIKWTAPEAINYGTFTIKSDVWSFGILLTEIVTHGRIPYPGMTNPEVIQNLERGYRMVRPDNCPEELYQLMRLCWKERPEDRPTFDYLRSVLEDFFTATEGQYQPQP
UniProt P43403: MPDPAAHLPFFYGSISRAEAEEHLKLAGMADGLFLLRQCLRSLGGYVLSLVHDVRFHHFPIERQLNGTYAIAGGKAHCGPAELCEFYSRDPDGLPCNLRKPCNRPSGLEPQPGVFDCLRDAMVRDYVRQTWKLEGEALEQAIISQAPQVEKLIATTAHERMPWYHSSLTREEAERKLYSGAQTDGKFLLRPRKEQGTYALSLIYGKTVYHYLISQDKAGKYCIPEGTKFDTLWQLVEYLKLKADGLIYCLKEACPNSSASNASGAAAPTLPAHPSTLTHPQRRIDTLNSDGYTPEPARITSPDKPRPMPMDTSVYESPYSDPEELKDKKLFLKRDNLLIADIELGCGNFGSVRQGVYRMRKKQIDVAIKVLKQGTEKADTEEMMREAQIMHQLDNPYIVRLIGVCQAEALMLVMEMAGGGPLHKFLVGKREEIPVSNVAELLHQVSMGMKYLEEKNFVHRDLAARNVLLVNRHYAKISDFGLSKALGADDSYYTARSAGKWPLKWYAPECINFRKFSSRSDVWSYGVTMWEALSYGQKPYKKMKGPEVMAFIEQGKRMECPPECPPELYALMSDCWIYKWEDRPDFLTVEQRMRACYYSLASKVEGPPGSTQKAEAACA

Legend:
[1] = target: CD3ε of the TCR/CD3 complex (human (endogenous in Jurkat and P116)) (UniProt P07766); experiment: proximity ligation; in situ PLA (Duolink) with goat anti-CD3ε and mouse anti-Lck on fixed, saponin-permeabilised Jurkat and P116 cells (Zap70^neg, Zap70^wt or Zap70^C564A); unstimulated, anti-CD3ε (OKT3) or pervanadate for 5 min at 37 °C; a signal means a distance of less than 80 nm
[2] = target: TCR ζ-chain (human (endogenous in P116)) (UniProt P20963); experiment: co-IP; ζ-chain immunoprecipitated with agarose-bound anti-CD3ζ over night at 4 °C, blotted; steady state and CD3 stimulation

binding [1] | binding [2] | Substance
binds |  | Lck (from UniProt P06239 1-509) (enzyme)
 | binds | Zap70 C564A mutant (Zap70^C564A) (from UniProt P43403 1-619) (enzyme)
